For 1 molecule, IC50 results are on record in PMC4047164 (Biochimica et biophysica acta, 2014).

The chains behind the UniProt entries cited, without tags or fusion partners. Where a name states a change or a piece, a line headed by the entry shows the natural chain unless it says otherwise.
UniProt Q2YWP9: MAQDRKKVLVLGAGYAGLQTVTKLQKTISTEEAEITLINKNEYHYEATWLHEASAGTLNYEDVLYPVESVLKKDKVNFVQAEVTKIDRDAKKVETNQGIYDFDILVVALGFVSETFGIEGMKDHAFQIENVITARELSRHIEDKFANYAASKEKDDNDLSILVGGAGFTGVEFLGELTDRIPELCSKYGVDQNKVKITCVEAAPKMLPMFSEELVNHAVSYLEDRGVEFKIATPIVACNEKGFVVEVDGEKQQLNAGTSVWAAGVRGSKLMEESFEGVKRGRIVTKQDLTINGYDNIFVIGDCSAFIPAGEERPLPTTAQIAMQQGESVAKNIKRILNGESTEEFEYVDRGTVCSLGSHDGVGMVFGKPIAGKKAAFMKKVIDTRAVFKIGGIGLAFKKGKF
UniProt Q2FZW0: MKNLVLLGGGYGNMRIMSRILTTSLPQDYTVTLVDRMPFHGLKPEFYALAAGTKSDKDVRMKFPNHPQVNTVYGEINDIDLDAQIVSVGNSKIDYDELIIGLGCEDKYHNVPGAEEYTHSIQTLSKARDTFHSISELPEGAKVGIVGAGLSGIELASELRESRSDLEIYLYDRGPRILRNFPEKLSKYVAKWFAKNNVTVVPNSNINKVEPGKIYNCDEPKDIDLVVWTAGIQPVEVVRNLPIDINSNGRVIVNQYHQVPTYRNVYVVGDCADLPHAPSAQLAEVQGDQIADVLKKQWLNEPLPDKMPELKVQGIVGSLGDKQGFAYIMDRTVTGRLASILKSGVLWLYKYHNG

Values joined by “and” are separate entries in the source; they are usually repeats but may differ in a detail not shown here. Identical values can stand only once.

For one assay, the system named is S. aureus membranes. Description: NADH-driven respiration. It is filed as biochemical. The note with it: read-out: IC50, respiration of S. aureus membranes.
The target in the next assay is NdhC (Staphylococcus aureus, UniProt Q2YWP9). Nature of the assay: biochemical. Further details: species or system S. aureus. The note with it: IC50, NdhC + Q8.
The next assay concerns the target NdhF (Staphylococcus aureus, UniProt Q2FZW0). Nature of the assay: biochemical. The note with it: IC50, NdhF + Q8.

Take `CSc1ccc2c(c1)N(CCC1CCCCN1C)c1ccccc1S2` (stereo not drawn) [TZ, Thioridazine]: the IC50 with S. aureus membranes was 7.4 ± 1 µM; on NdhC, 8 µM and 7.9 µM; at NdhF, 14 µM and 13.5 µM.
